{"source": "patent US6960591B2", "about": "“Propane-1,3-dione derivative” (Yamanouchi Pharmaceutical Co., Ltd., priority 2000, dated 2005)", "target": "T1, GnRH receptor (Rattus norvegicus, UniProt P30969)", "T1 construct": "was administered intramuscularly to Wistar male rats; from tissue; host or cells: whole animal: Wistar male rats (9 wk old; Japan SLC)", "T1 sequence (P30969 1-327)": "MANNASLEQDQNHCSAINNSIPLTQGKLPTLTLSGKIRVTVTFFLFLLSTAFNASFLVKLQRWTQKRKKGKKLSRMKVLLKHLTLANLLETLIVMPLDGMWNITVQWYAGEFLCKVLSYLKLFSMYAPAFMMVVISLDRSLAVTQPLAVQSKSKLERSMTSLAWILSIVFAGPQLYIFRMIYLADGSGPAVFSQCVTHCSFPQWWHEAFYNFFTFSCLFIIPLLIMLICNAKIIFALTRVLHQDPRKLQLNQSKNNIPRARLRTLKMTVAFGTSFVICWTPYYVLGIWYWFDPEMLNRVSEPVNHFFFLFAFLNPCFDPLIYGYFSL", "test": "Test of in vivo GnRH receptor antagonism: inhibition of the increase of serum testosterone induced by GnRH administration in rats", "details": "Wistar male rats; 30 mg/kg orally 3 hours before GnRH (30 ng/rat intramuscularly); blood 1 hour after GnRH", "note": "Some entries share one result that the patent states for a list of compounds.", "data": [{"molecule": "Cl.Nc1cccc(C(=O)C(C(=O)c2cc(F)cc(F)c2)=C2Nc3ccccc3N2)c1", "note": "[Example 40, 1-(3-aminophenyl)-3-(3,5-difluorophenyl)-2-(1,3-dihydro-2H-benzimidazol-2-ylidene)propane-1,3-dione hydrochloride]", "values": [{"measurement": "inhibitory activity (%) (IA) on GnRH-induced increase of serum testosterone", "value": "> 50", "unit": "%"}]}]}
